Article PMC9696974 (Pharmaceutics, 2022)

Assays:
Type in all cases: cell-based, human
[1] = tested on: lysosomes (LAMP1) in A549 cells; experiment: Colocalisation with LAMP1 (lysosomes), confocal microscopy; conditions: A549, 10 µM, 90 min at 37 °C, fixed with PFA
[2] = tested on: mitochondria in A549 cells; experiment: Colocalisation with MitoTracker Deep Red (mitochondria); conditions: A549, 10 µM, 90 min at 37 °C, live cells
[3] = tested on: Golgi apparatus (GM130) in A549 cells; experiment: Colocalisation with GM130 (Golgi), confocal microscopy; conditions: A549, 10 µM, 90 min at 37 °C, fixed with PFA

Row | Structure (SMILES) | Pearson's coefficient, colocalisation with lysosomes (LAMP1) [1] | Pearson's coefficient, colocalisation with mitochondria (MitoTracker Deep Red) [2] | Pearson's coefficient, colocalisation with Golgi (GM130) [3]
1 | c1cc2ccc3cc(-c4ccncc4)cc4ccc(c1)c2c34 [compound 1] | 0.468 | 0.356 | 0.294
2 | C[n+]1ccc(-c2cc3ccc4cccc5ccc(c2)c3c45)cc1 [1M, 2-para-N-methylpyridinium pyrene] | 0.46 | 0.628 | 0.27
3 | C[n+]1ccc(-c2cc3ccc4cc(-c5cc[n+](C)cc5)cc5ccc(c2)c3c45)cc1 [2M] | 0.404 | 0.206 | 0.165
